Results published in US12115208B2, “Small-molecule adjuvants for antibiotics to address antibiotic resistance” (HIGH POINT UNIVERSITY, priority 2017, dated 2024).
For part of these data: At least one read-out could not be matched to a standard name with certainty. For part of these data: At least one compound was matched to its structure with a doubt left. Some results were stated once for a whole list of compounds, not compound by compound.

How the values were obtained:
Format in all cases: cell-based, Staphylococcus aureus
[1] = tested on: S. aureus ATCC 43300 (MRSA); test: Minimum inhibitory concentration, broth microdilution; conditions: compound alone, CAMHB, 18 h
Experimental: (§1) The compounds were then analyzed for antibiotic repotentiation activity. […] The tested strains included USA300, which is a common and particularly virulent strain of community-acquired MRSA.

S. aureus USA300 (MRSA) = test: Antibiotic repotentiation (antibiotic MIC with/without compound)
Experimental: (§2) The overnight culture was diluted into fresh CAMHB to a concentration of 5×10^5 CFU/ml. […] On the same plate, a standard microdilution MIC with the tested antibiotics and no added compound was also performed to compare the antibiotic MIC in the presence and absence of compound. […] Fold reductions were calculated by dividing the MIC of the antibiotic without compound by the MIC of the antibiotic in the presence of compound.
as §1

S. aureus USA100 (MRSA) = test: as above; conditions: +50 μM compound
Experimental: as §2

Compound | MIC [1] [µM] | further results
NC1=Nc2ccccc2Oc2ccc(Cl)cc21 [II-7] | > 200 | 
CN[C@H](CC(C)C)C(=O)N[C@H]1C(=O)N[C@@H](CC(N)=O)C(=O)N[C@H]2C(=O)N[C@H]3C(=O)N[C@H](C(=O)N[C@H](C(=O)O)c4cc(O)cc(O)c4-c4cc3ccc4O)[C@H](O)c3ccc(c(Cl)c3)Oc3cc2cc(c3O[C@@H]2O[C@H](CO)[C@@H](O)[C@H](O)[C@H]2O[C@H]2C[C@](C)(N)[C@H](O)[C@H](C)O2)Oc2ccc(cc2Cl)[C@H]1O [Vancomycin] |  | Fold Reduction (S. aureus USA300 (MRSA); +Loratadine 25 μM): 1; Fold Reduction (S. aureus USA300 (MRSA); +Loratadine 50 μM): 1
Clc1ccc2c(c1)C(NC1CCCCC1)=Nc1ccccc1O2 [II-10] | > 200 | 
Clc1ccc2[nH]c3ccc(Cl)cc3c2c1 [IV-6] |  | Oxacillin MIC (S. aureus USA100 (MRSA)): 0.5/0.25 μg/mL
CCCCCCCCNC1=Nc2ccccc2Oc2ccc(Cl)cc21 [II-9] | > 200 | 
